# The supplement of paper PMC8728848
# This is one part of the list.
# B1: SspB C123 (Streptococcus gordonii), Q54186 (protein)
# chain: MAHFHYSSLLAQPQINKEIKNEDGVDIDRTLVAKQSIGKFELKTEALTAGRPKTTSFVLVDPLPTGYKFDLDATKAASTGFDTTYDEASHTVTFKATDETLATYNADLTKPVETLHPTVVGRVLNDGATYTNNFTLTVNDAYGIKSNVVRVTTPGKPNDPDNPNNNYIKPTKVNKNKEGLNIDGKEVLAGSTNYYELTWDLDQYKGDKSSKEAIQNGFYYVDDYPEEALDVRPDLVKVADEKGNQVSGVSVQQYDSLEAAPKKVQDLLKKANITVKGAFQLFSADNPEEFYKQYVSTGTSLVITDPMTVKSEFGKTGGKYENKAYQIDFGNGYATEVVVNNVPKITPKKDVTVSLDPTSENLDGQTVQLYQTFNYRLIGGFIPQNHSEELEDYSFVDDYDQAGDQYTGNYKTFSSLNLTMKDGSVIKAGTDLTSQTTAETDATNGIVTVRFKEDFLQKISLDSPFQAETYLQMRRIAIGTFENTYVNTVNKVAYASAAALEHHHHHH
# Assays:
# Experiment in all cases: glycan array binding signal (z-score within array); higher = stronger binding
# Details in all cases: glycan notation: IUPAC condensed, linker removed
# GalNAc(b1-3)Gal = target: GalNAc(b1-3)Gal
# In short: (§1)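 Glycan array data came from 3228 arrays in the Consortium for Functional Glycomics database, and only arrays with an available protein sequence were kept. Glycan names were put into IUPAC-condensed notation, and columns mapping to the same glycan were averaged. The binding signal is a within-array Z-score, averaged across arrays of one protein sequence run at different concentrations or buffers and across linkers. A negative Z-score can be read as non-binding.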
# [1] = target: GalNAc(b1-3)Gal(a1-4)Gal(b1-4)GlcNAc
# In short: as §1
# [2] = target: GalNAc(b1-3)Gal(a1-4)Gal(b1-4)GlcNAc(b1-3)Gal(b1-4)Glc
# In short: as §1
# [3] = target: GalNAc(b1-3)Gal(a1-6)Gal(b1-4)Glc
# In short: as §1
# GalNAc(b1-3)GalNAc = target: GalNAc(b1-3)GalNAc
# In short: as §1
# GalNAc(b1-3)GlcNAc = target: GalNAc(b1-3)GlcNAc
# In short: as §1
# GalNAc(b1-4)Gal(b1-4)Glc = target: GalNAc(b1-4)Gal(b1-4)Glc
# In short: as §1
# GalNAc(b1-4)GlcNAc = target: GalNAc(b1-4)GlcNAc
# In short: as §1
# [4] = target: GalNAc(b1-4)GlcNAc(b1-2)Man
# In short: as §1
# [5] = target: GalNAc(b1-4)GlcNAc(b1-2)Man(a1-3)[GalNAc(b1-4)GlcNAc(b1-2)Man(a1-6)]Man(b1-4)GlcNAc(b1-4)GlcNAc
# In short: as §1
# [6] = target: GalNAc(b1-4)GlcNAc(b1-3)GalNAc(b1-4)GlcNAc
# In short: as §1
# GalNAc(b1-4)GlcNAc6S = target: GalNAc(b1-4)GlcNAc6S
# In short: as §1
# GalNAc(b1-6)GalNAc = target: GalNAc(b1-6)GalNAc
# In short: as §1
# GalNAc3S(b1-4)GlcNAc = target: GalNAc3S(b1-4)GlcNAc
# In short: as §1
# GalNAc3S(b1-4)GlcNAc3S = target: GalNAc3S(b1-4)GlcNAc3S
# In short: as §1
# [7] = target: GalNAc3S(b1-4)[Fuc(a1-3)]GlcNAc
# In short: as §1
# GalNAc4S6S(b1-4)GlcNAc = target: GalNAc4S6S(b1-4)GlcNAc
# In short: as §1
# GalNAc6S(b1-4)GlcNAc = target: GalNAc6S(b1-4)GlcNAc
# In short: as §1
# Glc(a1-4)Glc = target: Glc(a1-4)Glc
# In short: as §1
# [8] = target: Glc(a1-4)Glc(a1-4)Glc(a1-4)Glc
# In short: as §1
# Glc(a1-6)Glc(a1-6)Glc = target: Glc(a1-6)Glc(a1-6)Glc
# In short: as §1
# [9] = target: Glc(a1-6)Glc(a1-6)Glc(a1-6)Glc
# In short: as §1
# Glc(b1-4)Glc = target: Glc(b1-4)Glc
# In short: as §1
# Glc(b1-6)Glc = target: Glc(b1-6)Glc
# In short: as §1
# GlcA(b1-3)Gal = target: GlcA(b1-3)Gal
# In short: as §1
# GlcA(b1-3)GlcNAc = target: GlcA(b1-3)GlcNAc
# In short: as §1
# GlcA(b1-6)Gal = target: GlcA(b1-6)Gal
# In short: as §1
# [10] = target: GlcA3S(b1-3)Gal(b1-4)GlcNAc(b1-2)Man
# In short: as §1
# [11] = target: GlcA3S(b1-3)Gal(b1-4)GlcNAc(b1-3)Gal(b1-4)Glc
# In short: as §1
# [12] = target: GlcNAc(a1-3)Gal(b1-4)GlcNAc
# In short: as §1
# [13] = target: GlcNAc(a1-4)Gal(b1-3)GlcNAc
# In short: as §1
# [14] = target: GlcNAc(a1-4)Gal(b1-4)GalNAc
# In short: as §1
# [15] = target: GlcNAc(a1-4)Gal(b1-4)GlcNAc
# In short: as §1
# [16] = target: GlcNAc(a1-4)Gal(b1-4)GlcNAc(b1-3)Gal(b1-4)Glc
# In short: as §1
# [17] = target: GlcNAc(a1-4)Gal(b1-4)GlcNAc(b1-3)Gal(b1-4)GlcNAc
# In short: as §1
# [18] = target: GlcNAc(a1-4)Gal(b1-4)GlcNAc(b1-3)Gal(b1-4)GlcNAc(b1-3)Gal(b1-4)GlcNAc
# In short: as §1
# [19] = target: GlcNAc(a1-4)Gal(b1-4)GlcNAc(b1-3)Gal(b1-4)[Fuc(a1-3)]GlcNAc(b1-3)Gal(b1-4)[Fuc(a1-3)]GlcNAc
# In short: as §1
# [20] = target: GlcNAc(a1-6)Gal(b1-4)GlcNAc
# In short: as §1
binder,measurement,setting,value
B1,glycan array binding signal (z-score),GalNAc(b1-3)Gal,-0.132
same,glycan array binding signal (z-score),[1],2.25
same,glycan array binding signal (z-score),[2],-1.07
same,glycan array binding signal (z-score),[3],-0.455
same,glycan array binding signal (z-score),GalNAc(b1-3)GalNAc,0.351
same,glycan array binding signal (z-score),GalNAc(b1-3)GlcNAc,-0.14
same,glycan array binding signal (z-score),GalNAc(b1-4)Gal(b1-4)Glc,1.78
same,glycan array binding signal (z-score),GalNAc(b1-4)GlcNAc,0.637
same,glycan array binding signal (z-score),[4],-0.023
same,glycan array binding signal (z-score),[5],1.55
same,glycan array binding signal (z-score),[6],-1.02
same,glycan array binding signal (z-score),GalNAc(b1-4)GlcNAc6S,-0.246
same,glycan array binding signal (z-score),GalNAc(b1-6)GalNAc,0.246
same,glycan array binding signal (z-score),GalNAc3S(b1-4)GlcNAc,-0.617
same,glycan array binding signal (z-score),GalNAc3S(b1-4)GlcNAc3S,-0.551
same,glycan array binding signal (z-score),[7],0.635
same,glycan array binding signal (z-score),GalNAc4S6S(b1-4)GlcNAc,-0.886
same,glycan array binding signal (z-score),GalNAc6S(b1-4)GlcNAc,-0.443
same,glycan array binding signal (z-score),Glc(a1-4)Glc,-0.478
same,glycan array binding signal (z-score),[8],0.337
same,glycan array binding signal (z-score),Glc(a1-6)Glc(a1-6)Glc,1.79
same,glycan array binding signal (z-score),[9],0.098
same,glycan array binding signal (z-score),Glc(b1-4)Glc,-0.604
same,glycan array binding signal (z-score),Glc(b1-6)Glc,-1.66
same,glycan array binding signal (z-score),GlcA(b1-3)Gal,-1.48
same,glycan array binding signal (z-score),GlcA(b1-3)GlcNAc,-0.479
same,glycan array binding signal (z-score),GlcA(b1-6)Gal,3.52
same,glycan array binding signal (z-score),[10],-0.13
same,glycan array binding signal (z-score),[11],0.178
same,glycan array binding signal (z-score),[12],-1.31
same,glycan array binding signal (z-score),[13],-0.755
same,glycan array binding signal (z-score),[14],0.672
same,glycan array binding signal (z-score),[15],-1.85
same,glycan array binding signal (z-score),[16],-0.583
same,glycan array binding signal (z-score),[17],0.032
same,glycan array binding signal (z-score),[18],-1.02
same,glycan array binding signal (z-score),[19],0.575
same,glycan array binding signal (z-score),[20],1.46

# An excerpt of these results, with tabs.
binder	measurement	setting	value
B1	glycan array binding signal (z-score)	GalNAc4S6S(b1-4)GlcNAc	-0.886
same	glycan array binding signal (z-score)	GlcA(b1-3)GlcNAc	-0.479
